The results in this text go back to patent USRE35044E, “Cyanine compounds” (Asahi Chemical Co., Ltd., priority 1987, dated 1995).

Each structure is given as a SMILES string.

The nature of data set [1]: Test for optimum recording power. As to conditions: 780 nm, 1.2 m/s, 450 kHz; CN ratio at least 45 dB, error rate up to 50 cps; listed as Dye of Prep. Ex. 11. As for the experimental part:
Information was recorded on a photosensitive recording medium formed using each of the cyanine dyes shown below in Table 1 by irradiation of semiconductor laser beams at 780 nm at a recording power of 0.2 mW, a liner velocity of 1.2 m/s and a frequency of 450 kHz and the recorded information was reproduced at a reproducing power of 0.2 mW. The optimum recording power is one at which errors occur at the lowest frequency (CN ratio of at least 45 dB and error rate of up to 50 cps) when the recording is reproduced at varying recording powers of from 2.0 to 8.0 mW and the recorded information was reproduced by irradiation of semiconductor laser beams at 780 nm at a reproducing power of 0.2 mW.

The nature of data set [2]: Test for reflectivity and absorptivity (dye coating on acrylic resin plate, semiconductor laser beam 780 nm). Particulars: coating 600 to 700 Å thick on acrylic resin plate. The procedure:
Each of cyanine dyes as shown below in Table 1 was dissolved in dichloromethane to a concentration of 20 g/l. The solution was applied to an acrylic resin plate by a spin coater rotated at 1500 rpm to form a layer of 600 to 700 Å thickness, and the coating was dried. The reflectivity and absorptivity of the coating were measured by irradiation of semiconductor laser beam at 780 nm over the coating surface.

As for `CCCCN1C(=CC=CC=CC2=[N+](CCCC)c3cc(OC)c(OC)cc3C2(C)C)C(C)(C)c2cc(OC)c(OC)cc21` [Preparation Example 11], in data set [1], the Optimum recording power amounted to 2.9 mW.

In turn, `COCCN1C(=CC=CC=CC2=[N+](CCOC)c3c(OC)cc(OC)cc3C2(C)C)C(C)(C)c2cc(OC)cc(OC)c21` [Preparation Example 14] gave an Absorptivity in data set [2] of 19%.
